Some of the results follow. Residues, ends and D or L forms follow the SMILES beside them. *: point of attachment. Cbz = O=C(OCc1ccccc1)*
What was measured:
Assay in all cases: log2 fold change, soluble protein after heating vs DMSO (PISA); higher = thermal stabilisation; K562 cells, 10 uM, 30 min; active = over 0.2 and 3.5 SD of the protein, either way, in both replicates (recomputed)
[1] = compound: C#Cc1cccc(Nc2ncnc3cc(OCCOC)c(OCCOC)cc23)c1 [erlotinib]
Method in brief: (§1)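 Values are thermal stability changes relative to control samples and are taken from duplicates. They are stated as log2 fold changes. Before quantification by TMTpro 16plex LC-MS/MS with equalised channel sums, K562 cells at 2×10^6 cells/mL were treated with 10 μM compound for 30 min, heated in aliquots for 3 min across 48°C-58°C, pooled, extracted in PBS with 0.5% NP-40 at 4°C, and centrifuged at 21,000xg for 90 min to give the soluble supernatant.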

Protein sequences, listed by entry. Tags and fused reporters are not part of them. Lines headed by an entry give the natural chain unless they say otherwise; changes in a name come on top.
UniProt Q9Y546: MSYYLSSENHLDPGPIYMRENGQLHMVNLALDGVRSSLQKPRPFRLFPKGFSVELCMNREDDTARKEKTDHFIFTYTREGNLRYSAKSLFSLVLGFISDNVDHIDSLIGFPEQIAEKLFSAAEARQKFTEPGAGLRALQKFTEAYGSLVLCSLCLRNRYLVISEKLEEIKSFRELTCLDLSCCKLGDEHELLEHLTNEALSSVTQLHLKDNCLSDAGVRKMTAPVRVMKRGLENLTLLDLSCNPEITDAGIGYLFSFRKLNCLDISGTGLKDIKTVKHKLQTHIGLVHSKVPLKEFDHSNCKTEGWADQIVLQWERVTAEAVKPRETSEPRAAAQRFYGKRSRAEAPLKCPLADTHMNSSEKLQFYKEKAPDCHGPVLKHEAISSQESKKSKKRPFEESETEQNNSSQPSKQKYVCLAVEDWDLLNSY
UniProt Q15334: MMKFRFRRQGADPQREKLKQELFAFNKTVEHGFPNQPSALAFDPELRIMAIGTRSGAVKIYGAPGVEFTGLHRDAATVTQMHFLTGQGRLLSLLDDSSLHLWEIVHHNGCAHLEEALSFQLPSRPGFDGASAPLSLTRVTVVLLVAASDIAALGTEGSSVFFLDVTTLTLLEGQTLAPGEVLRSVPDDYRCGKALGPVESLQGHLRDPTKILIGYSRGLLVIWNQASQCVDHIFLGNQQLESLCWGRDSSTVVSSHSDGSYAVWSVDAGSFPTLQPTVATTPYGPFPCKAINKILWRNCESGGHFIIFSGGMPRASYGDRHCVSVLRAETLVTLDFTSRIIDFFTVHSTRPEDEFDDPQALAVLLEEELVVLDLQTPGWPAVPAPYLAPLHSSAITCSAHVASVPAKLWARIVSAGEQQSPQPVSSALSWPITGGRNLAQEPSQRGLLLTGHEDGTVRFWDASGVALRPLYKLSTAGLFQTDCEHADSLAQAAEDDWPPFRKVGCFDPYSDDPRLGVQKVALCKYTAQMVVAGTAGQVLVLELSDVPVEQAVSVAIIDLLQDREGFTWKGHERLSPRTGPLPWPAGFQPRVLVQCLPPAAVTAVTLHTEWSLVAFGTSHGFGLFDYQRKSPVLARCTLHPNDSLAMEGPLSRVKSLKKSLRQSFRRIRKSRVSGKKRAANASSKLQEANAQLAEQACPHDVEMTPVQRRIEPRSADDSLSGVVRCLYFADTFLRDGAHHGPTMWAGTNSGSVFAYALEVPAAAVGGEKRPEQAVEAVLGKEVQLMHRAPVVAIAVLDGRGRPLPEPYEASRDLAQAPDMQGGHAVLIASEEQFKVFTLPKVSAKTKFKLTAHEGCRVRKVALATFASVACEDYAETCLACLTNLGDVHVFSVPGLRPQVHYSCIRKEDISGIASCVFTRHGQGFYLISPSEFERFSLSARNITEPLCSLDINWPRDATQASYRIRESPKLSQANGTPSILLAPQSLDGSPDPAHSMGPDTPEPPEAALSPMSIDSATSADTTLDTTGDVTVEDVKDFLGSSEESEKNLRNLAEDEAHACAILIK
UniProt P06858: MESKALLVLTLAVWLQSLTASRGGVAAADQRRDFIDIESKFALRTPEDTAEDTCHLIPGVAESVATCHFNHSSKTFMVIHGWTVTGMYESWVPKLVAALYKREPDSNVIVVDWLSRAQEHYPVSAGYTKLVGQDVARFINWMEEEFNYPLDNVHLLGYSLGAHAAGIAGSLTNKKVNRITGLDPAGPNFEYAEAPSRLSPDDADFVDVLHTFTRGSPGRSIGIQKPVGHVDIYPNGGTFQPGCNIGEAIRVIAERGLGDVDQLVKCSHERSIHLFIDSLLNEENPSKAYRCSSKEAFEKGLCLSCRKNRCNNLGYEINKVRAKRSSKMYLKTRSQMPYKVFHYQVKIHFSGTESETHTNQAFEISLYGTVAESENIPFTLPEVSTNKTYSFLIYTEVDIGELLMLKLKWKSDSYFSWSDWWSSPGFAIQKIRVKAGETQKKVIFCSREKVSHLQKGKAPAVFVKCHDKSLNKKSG
UniProt O43766: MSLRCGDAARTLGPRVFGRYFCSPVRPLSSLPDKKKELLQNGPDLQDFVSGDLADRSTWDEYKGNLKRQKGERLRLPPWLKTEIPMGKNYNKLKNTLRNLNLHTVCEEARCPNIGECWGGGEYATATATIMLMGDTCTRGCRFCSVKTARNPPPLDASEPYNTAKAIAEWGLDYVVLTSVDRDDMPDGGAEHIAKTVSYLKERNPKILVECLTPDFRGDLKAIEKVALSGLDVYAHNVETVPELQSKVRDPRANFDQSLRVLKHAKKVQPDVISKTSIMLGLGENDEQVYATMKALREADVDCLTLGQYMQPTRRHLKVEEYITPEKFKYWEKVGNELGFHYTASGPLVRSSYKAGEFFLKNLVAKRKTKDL
UniProt Q9P244: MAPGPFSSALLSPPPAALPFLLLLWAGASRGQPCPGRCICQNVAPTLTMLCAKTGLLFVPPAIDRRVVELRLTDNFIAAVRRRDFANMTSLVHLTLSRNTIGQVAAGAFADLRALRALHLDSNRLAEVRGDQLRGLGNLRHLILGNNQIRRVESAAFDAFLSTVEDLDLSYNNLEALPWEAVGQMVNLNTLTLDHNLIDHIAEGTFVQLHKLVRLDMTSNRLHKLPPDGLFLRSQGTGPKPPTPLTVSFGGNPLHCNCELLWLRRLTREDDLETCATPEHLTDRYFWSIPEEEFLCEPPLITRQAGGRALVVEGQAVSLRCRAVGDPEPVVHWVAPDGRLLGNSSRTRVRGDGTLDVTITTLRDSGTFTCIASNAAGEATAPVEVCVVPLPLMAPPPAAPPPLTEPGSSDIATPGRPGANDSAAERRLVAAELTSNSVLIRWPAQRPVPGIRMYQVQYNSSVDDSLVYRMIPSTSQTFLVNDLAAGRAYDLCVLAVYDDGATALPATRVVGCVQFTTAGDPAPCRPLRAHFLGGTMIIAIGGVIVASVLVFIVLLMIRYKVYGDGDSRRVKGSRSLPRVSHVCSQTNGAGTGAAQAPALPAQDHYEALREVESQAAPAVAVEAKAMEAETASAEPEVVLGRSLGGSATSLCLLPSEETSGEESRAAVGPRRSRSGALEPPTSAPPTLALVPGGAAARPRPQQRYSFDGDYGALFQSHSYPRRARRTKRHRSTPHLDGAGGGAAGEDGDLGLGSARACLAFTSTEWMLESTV
UniProt Q86UP2: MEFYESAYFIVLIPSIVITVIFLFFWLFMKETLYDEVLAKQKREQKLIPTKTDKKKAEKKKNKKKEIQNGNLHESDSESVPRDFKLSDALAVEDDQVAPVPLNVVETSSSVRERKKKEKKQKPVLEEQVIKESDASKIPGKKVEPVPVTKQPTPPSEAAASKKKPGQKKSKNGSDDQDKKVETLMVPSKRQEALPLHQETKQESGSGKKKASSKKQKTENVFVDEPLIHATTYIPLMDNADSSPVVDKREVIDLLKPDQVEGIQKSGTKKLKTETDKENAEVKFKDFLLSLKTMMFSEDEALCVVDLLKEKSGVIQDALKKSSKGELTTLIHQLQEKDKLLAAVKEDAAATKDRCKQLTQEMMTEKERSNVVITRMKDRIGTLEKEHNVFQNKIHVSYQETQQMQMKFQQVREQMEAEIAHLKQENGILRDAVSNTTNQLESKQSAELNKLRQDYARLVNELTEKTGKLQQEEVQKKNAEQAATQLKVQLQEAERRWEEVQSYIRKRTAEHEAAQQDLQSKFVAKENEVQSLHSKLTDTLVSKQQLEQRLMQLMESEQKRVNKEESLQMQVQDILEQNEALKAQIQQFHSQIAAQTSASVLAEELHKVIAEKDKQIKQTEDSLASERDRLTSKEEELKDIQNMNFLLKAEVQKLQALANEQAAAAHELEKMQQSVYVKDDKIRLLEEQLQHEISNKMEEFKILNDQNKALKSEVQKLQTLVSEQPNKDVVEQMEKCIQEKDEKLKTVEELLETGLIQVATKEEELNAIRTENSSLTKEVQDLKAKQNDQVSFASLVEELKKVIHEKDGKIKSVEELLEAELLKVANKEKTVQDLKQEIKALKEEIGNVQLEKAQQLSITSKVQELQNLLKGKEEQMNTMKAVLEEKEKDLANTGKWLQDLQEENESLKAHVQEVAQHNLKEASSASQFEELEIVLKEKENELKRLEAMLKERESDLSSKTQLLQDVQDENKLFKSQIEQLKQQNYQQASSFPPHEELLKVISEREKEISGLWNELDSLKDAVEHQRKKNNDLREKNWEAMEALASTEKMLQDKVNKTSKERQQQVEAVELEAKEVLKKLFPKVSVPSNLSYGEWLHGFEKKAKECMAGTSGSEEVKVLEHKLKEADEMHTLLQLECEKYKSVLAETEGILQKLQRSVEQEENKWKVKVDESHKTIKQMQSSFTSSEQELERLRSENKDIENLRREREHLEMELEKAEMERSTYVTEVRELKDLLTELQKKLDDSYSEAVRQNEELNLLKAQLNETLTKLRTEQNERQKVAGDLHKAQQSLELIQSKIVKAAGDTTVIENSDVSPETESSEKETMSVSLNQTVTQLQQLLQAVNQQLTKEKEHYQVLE
UniProt Q13094: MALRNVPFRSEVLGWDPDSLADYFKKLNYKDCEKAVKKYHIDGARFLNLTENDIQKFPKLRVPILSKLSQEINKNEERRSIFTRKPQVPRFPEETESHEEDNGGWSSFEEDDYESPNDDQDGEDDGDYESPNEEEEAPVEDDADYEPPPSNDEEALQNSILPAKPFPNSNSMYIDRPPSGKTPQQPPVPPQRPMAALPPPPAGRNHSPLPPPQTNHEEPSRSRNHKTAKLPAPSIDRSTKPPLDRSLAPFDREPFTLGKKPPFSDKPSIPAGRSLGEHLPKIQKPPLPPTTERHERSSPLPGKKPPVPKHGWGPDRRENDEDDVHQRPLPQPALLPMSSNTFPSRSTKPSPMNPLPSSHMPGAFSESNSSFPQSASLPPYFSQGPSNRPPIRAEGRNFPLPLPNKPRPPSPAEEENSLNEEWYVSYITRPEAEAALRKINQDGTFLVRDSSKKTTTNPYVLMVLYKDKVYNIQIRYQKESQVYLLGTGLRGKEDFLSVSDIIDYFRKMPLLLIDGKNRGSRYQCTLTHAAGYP
UniProt Q96GY3: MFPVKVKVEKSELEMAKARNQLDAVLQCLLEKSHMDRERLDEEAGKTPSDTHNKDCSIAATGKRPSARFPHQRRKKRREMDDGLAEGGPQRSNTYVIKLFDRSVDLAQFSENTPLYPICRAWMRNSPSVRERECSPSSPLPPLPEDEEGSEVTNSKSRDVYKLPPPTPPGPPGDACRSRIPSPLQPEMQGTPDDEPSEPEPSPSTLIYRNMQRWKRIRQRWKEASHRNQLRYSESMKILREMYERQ
UniProt O60294: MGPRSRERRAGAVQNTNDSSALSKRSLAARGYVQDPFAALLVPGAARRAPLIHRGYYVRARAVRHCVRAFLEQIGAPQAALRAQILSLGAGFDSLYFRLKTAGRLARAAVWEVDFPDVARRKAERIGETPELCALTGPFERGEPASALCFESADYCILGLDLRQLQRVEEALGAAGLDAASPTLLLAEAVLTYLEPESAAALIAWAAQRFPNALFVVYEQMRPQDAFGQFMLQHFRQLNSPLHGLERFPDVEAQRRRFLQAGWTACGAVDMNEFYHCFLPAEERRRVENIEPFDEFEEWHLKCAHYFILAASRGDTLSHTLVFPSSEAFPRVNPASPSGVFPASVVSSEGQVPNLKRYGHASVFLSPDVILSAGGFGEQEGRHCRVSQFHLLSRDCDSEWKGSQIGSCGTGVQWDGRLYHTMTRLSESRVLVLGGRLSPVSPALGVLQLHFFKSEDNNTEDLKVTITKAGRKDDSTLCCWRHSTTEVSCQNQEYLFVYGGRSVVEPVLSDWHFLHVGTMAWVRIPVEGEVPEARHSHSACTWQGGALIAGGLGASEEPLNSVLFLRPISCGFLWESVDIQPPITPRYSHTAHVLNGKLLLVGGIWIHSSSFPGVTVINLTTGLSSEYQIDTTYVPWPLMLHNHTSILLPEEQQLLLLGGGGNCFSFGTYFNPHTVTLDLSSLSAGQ
UniProt P13473: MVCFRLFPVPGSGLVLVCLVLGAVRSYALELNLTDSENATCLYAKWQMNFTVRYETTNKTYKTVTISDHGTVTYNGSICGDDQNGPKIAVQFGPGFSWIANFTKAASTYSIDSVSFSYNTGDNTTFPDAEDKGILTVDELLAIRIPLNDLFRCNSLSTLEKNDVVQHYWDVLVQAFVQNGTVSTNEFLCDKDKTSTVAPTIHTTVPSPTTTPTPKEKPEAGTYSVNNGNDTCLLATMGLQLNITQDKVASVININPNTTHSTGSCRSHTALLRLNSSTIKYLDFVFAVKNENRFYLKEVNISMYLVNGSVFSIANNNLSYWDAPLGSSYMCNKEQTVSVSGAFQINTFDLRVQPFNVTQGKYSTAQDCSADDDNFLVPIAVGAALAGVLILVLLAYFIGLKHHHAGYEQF

[2] = compound: C/C(=N\NC(=O)C1=CC(=CC=C1)S(=O)(=O)N2CCOCC2)/C3=C(C=CC(=C3)Cl)O
Method in brief: as §1

[3] = compound: C1=CC(=CC=C1C2=NC3=C(N2)C=C(C=C3)C(=O)N)OC4=CC=C(C=C4)Cl
Method in brief: as §1

[4] = compound: C1=CC2=C(C=CC(=C2)/C=C\3/C(=O)NC(=NCC4=CC=CS4)S3)N=C1
Method in brief: as §1

[5] = compound: C1=CC2=NC=CN=C2C=C1/C=C/3\C(=O)NC(=O)S3
Method in brief: as §1

[6] = compound: C1=CC=C(C=C1)C2=NC(=C(N2)C3=CC=NC=C3)C4=CC(=C(C=C4)Cl)O
Method in brief: as §1

[7] = compound: C1=CC=C2C(=C1)C3=NNC4=CC=CC(=C43)C2=O
Method in brief: as §1

[8] = compound: C1CCN(C1)C(=O)NC2=CC=CC(=C2)NC3=NC=C(C(=N3)NCCC4=CN=CN4)Br
Method in brief: as §1

[9] = compound: C1CN(CCC1(CC2=CC=C(C=C2)Cl)N)C3=NC=NC4=C3C=CN4
Method in brief: as §1

[10] = compound: C=CC(=O)N1CCC[C@@H](n2nc(-c3ccc(Oc4ccccc4)cc3)c3c(N)ncnc32)C1 [ibrutinib]
Method in brief: as §1

[11] = compound: CC(=O)c1cnc2ccc(-c3cc(Cl)c(O)c(Cl)c3)nc2c1N[C@H]1CC[C@H](CN(C)C)CC1
Method in brief: as §1

[12] = compound: CC(C)(C)Cn1c(N)nc2ccc(-c3[nH]c(C(C)(C)C)nc3-c3ccc(F)cc3)nc21 [ralimetinib]
Method in brief: as §1

[13] = compound: CC(C)C1=C2N=C(C=C(N2N=C1)NCC3=CC=CC=C3)NCCCCCCN
Method in brief: as §1

[14] = compound: CC(C)C[C@@H](C=O)NC(=O)[C@H](CC(C)C)NC(=O)[C@H](CC(C)C)NC(=O)OCc1ccccc1
Method in brief: as §1

[15] = compound: CC1=C(C2=C(C=C1)C(=O)C3=CC=CC=C3N2CCCN)C
Method in brief: as §1

[16] = compound: C1=CC(=C(C=C1Cl)C2=NC3=NC=CN=C3C(=N2)NC4=CC=NC=C4)F
Method in brief: as §1

[17] = compound: C1COCCN1CCN2C3=CC=CC=C3N=C2NC(=O)C4=CC(=CC=C4)[N+](=O)[O-] [IRAK-1-4 Inhibitor I]
Method in brief: as §1

[18] = compound: CC(C)(O)CC(=O)NCCn1ccc2ncnc(Nc3ccc(Oc4cccc(C(F)(F)F)c4)c(Cl)c3)c21
Method in brief: as §1

[19] = compound: CC(C)N(C[C@H]1O[C@@H](n2cnc3c(N)ncnc32)[C@H](O)[C@@H]1O)[C@H]1C[C@@H](CCc2nc3cc(C(C)(C)C)ccc3[nH]2)C1 [pinometostat]
Method in brief: as §1

[20] = compound: CC1=C(C(CC(=O)N1)C2=CC=C(C=C2)C(F)(F)F)C(=O)NC3=C(C=C4C(=C3)C=NN4)F
Method in brief: as §1

Measured: log2 fold change

LRRC42 (UniProt Q9Y546)
inactive: [1] -0.01 | [2] -0.301 | [3] 0.011 | [4] 0.398 | [5] 0.161 | [6] -0.082 | [7] 0.004 | [8] 0.023 | [9] 0.099 | [10] 0.156 | [11] -0.262 | [12] 0.121 | [13] -0.003 | [14] 0.048 | [15] -0.012

LLGL1 (UniProt Q15334)
inactive: [1] 0.011 | [16] 0.172 | [3] 0.046 | [8] -0.135 | [9] -0.008 | [17] 0.025 | [18] -0.155 | [13] -0.021 | [19] 0 | [15] -0.116

LPL (UniProt P06858)
inactive: [1] 0.051 | [2] -0.106 | [3] -0.065 | [4] -0.24 | [7] -0.188 | [8] -0.056 | [9] -0.04 | [17] -0.058 | [11] 0 | [13] 0.057 | [19] 0.049 | [15] 0.131

LIAS (UniProt O43766)
active: [2] -0.24
inactive: [1] 0.068 | [16] 0.011 | [3] 0.019 | [4] 0.014 | [5] 0.007 | [6] -0.273 | [7] 0.009 | [8] 0.028 | [9] 0 | [17] 0.029 | [10] 0.005 | [11] 0.101 | [12] -0.212 | [18] -0.003 | [13] -0.023 | [14] 0.131 | [19] -0.011 | [15] -0.01

LRFN1 (UniProt Q9P244)
inactive: [1] 0.059 | [16] -0.028 | [3] 0 | [5] 0.004 | [6] -0.038 | [8] -0.1 | [9] 0.052 | [17] 0.105 | [10] -0.018 | [12] -0.009 | [18] 0.073 | [13] 0.107 | [14] 0.061 | [19] 0.029 | [15] 0.008

KTN1 (UniProt Q86UP2)
inactive: [1] -0.013 | [2] -0.007 | [16] -0.05 | [3] -0.08 | [4] 0.058 | [5] -0.006 | [6] -0.04 | [7] -0.032 | [8] -0.028 | [9] -0.129 | [17] -0.066 | [10] -0.029 | [11] 0.065 | [12] 0.098 | [18] 0 | [14] 0.072 | [19] 0.102 | [15] 0.071
active: [13] -0.343

LCP2 (UniProt Q13094)
inactive: [1] 0.013 | [2] -0.022 | [16] 0.01 | [3] -0.075 | [4] 0.088 | [5] 0.115 | [6] 0.032 | [7] -0.038 | [8] -0.124 | [9] 0.057 | [17] -0.046 | [10] 0 | [11] -0.14 | [12] -0.009 | [18] -0.129 | [13] 0.025 | [14] 0.011 | [19] 0.06 | [15] 0.025

LIN37 (UniProt Q96GY3)
inactive: [1] 0.428 | [2] -0.516 | [3] -0.204 | [4] 0.153 | [7] -0.005 | [17] 0.005 | [11] 0 | [13] 0.411 | [19] -0.034

LCMT2 (UniProt O60294)
inactive: [1] 0.125 | [16] 0.083 | [3] -0.073 | [5] -0.211 | [17] 0.042 | [10] 0.033 | [18] 0.01 | [13] -0.073 | [19] 0.044 | [20] -0.143

LAMP2 (UniProt P13473)
inactive: [1] 0.035 | [2] 0 | [16] 0.088 | [3] 0.031 | [4] 0.002 | [5] 0.101 | [6] -0.013 | [7] -0.01 | [8] -0.013 | [9] 0.039 | [17] 0.063 | [10] 0.042 | [11] -0.083 | [12] -0.12 | [18] -0.007 | [13] -0.033 | [14] 0.004 | [19] -0.077 | [15] 0.066

LRP8 (UniProt E9PP15)
inactive: [1] 0.197 | [2] 0.048 | [16] 0.024 | [3] -0.204 | [4] 0.015 | [5] 0.046 | [6] -0.043 | [7] -0.161 | [8] 0.074 | [9] -0.005 | [17] 0.26 | [10] 0.114 | [11] 0.073 | [12] -0.188 | [18] -0.064 | [13] 0.105 | [14] 0.209 | [19] -0.141 | [15] -0.065
